Laboratory results as given in patent US9340579B2 (NIPPI, INCORPORATED, priority 2011, dated 2016).

Experiment: general procedure: Fmoc solid-phase peptide synthesis; Fmoc-Pro-Wang resin; DIC/HOBt
Settings: whole synthesis
[1] = scale of the general procedure 0.5 g resin

Gly-Pro-Ala-Gly-Pro
crude mass: 38.5 mg | isolated mass: 30.7 mg | crude yield [1]: 29.8% | isolated yield [1]: 23.8%
